Measurements reported in PMC5760633, “Determining direct binders of the Androgen Receptor using a high-throughput Cellular Thermal Shift Assay” (Scientific Reports, 2018).
The source holds more than one record for some entries. The other results are left out here. There may be further records. The records of an entry differ for a reason that is not stated; some may be repeats, others may stem from another dose, organism or construct than stated.

Amino acid sequences for entries named in this document (tags omitted).
UniProt P10275, whole entry H875Y: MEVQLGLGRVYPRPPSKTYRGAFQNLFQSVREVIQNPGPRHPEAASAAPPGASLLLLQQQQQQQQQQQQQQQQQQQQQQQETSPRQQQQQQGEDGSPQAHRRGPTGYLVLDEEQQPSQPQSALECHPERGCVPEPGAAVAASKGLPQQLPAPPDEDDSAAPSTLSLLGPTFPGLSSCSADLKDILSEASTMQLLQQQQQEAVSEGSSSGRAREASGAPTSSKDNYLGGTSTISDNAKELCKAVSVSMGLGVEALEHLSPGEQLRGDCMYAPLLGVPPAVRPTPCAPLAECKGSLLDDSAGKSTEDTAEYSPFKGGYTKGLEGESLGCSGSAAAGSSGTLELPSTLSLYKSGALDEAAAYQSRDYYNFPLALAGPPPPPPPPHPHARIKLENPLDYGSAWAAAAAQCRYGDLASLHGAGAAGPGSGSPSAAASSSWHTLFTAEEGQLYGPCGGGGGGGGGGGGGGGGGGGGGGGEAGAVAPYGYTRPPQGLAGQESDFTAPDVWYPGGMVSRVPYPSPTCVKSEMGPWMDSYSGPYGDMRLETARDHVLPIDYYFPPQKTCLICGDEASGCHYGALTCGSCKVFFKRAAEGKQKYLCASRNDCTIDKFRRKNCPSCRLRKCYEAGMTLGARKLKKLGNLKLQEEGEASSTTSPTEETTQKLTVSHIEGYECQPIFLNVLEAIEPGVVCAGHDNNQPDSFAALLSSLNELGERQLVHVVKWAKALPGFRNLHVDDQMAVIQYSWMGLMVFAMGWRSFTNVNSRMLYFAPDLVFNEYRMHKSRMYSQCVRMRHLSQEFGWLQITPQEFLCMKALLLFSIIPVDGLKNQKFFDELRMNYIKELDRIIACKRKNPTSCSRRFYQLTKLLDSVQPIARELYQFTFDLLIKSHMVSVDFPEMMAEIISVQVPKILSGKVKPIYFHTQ

Target: Androgen Receptor (AR) (Homo sapiens, UniProt P10275, H875Y)
Assay: CETSA HT ITDRF at 46 °C, agonist mode (no exogenous DHT), CWR22Pc-R1-AD1 cells
Type: binding

## C[C@]1(O)CC[C@H]2[C@@H]3CCC4=CC(=O)CCC4=C3C=C[C@@]21C
  compound incubation time at which AR thermal stabilisation is seen: ≤ 10 minutes and 10 minutes
